PubChem BioAssay AID602196 – INSERM – 2012
This is a random part of about 23,000 deposited reagents. In the full data, 455 (2%) got an active call. 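Active includes both protection and sensitisation; some change values fall well beyond the stated -50 to +50 range.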 Reagents against one gene are numbered here. Not all columns of the deposit are shown. Reagent sequences are not shown. Not given: the amount of reagent.

Test: 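Modifiers of cisplatin sensitivity in A549 cells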
Cell system: human A549 lung cancer cells
Reagents: siRNA pair against human genes
Timing: 48 h transfection before cisplatin; time from cisplatin to read-out not stated
Treatment: cisplatin at a dose killing half of control-siRNA cells; exact dose and duration not given
Read-out: 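Shift in cisplatin death relative to control siRNA, from -50 (all cells die) to +50 (no cells die); siRNAs harmful on their own scored 0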
Reading the numbers: two-siRNA summed score (-2 to +2): higher = both siRNAs protect from cisplatin killing; -2 means both sensitise; mean protection from cisplatin (shift in death): higher = protection from cisplatin killing
Rule for the call: 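Each siRNA scores 0 if harmful alone by LDH or WST-1, otherwise +1 if it reduces and -1 if it increases cisplatin killing; a gene is active when both siRNAs agree (sum +2 or -2)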
Meaning of the calls: active = both siRNAs shift cisplatin killing the same way; inactive = no consistent shift, or siRNA harmful alone

For EIF2B3 (eukaryotic translation initiation factor 2B subunit gamma), what was measured?
two-siRNA summed score (-2 to +2): 0; mean protection from cisplatin (shift in death) (%): 0.7; activity call: inactive

What did the screen give for PFAS (phosphoribosylformylglycinamidine synthase)?
two-siRNA summed score (-2 to +2): 0; mean protection from cisplatin (shift in death) (%): 2.9; activity call: inactive

For ZNF512 (zinc finger protein 512), how do the results read?
two-siRNA summed score (-2 to +2): 0; mean protection from cisplatin (shift in death) (%): 0.3; activity call: inactive

For TTYH3 (tweety family member 3), what was measured?
two-siRNA summed score (-2 to +2): 0; mean protection from cisplatin (shift in death) (%): 9.5; activity call: inactive

For LOC388887, what was measured?
two-siRNA summed score (-2 to +2): 0; mean protection from cisplatin (shift in death) (%): -0.9; activity call: inactive

With NIT1 (nitrilase 1), how do the results read?
two-siRNA summed score (-2 to +2): 0; mean protection from cisplatin (shift in death) (%): 2.6; activity call: inactive

With PRM2 (protamine 2), what was measured?
two-siRNA summed score (-2 to +2): 0; mean protection from cisplatin (shift in death) (%): 9.7; activity call: inactive

How did the screen score ZNF404 (zinc finger protein 404)?
two-siRNA summed score (-2 to +2): 0; mean protection from cisplatin (shift in death) (%): 12.8; activity call: inactive

What did the screen give for LOC441460?
two-siRNA summed score (-2 to +2): 1; mean protection from cisplatin (shift in death) (%): 4; activity call: inactive

For TPTE2, what does the deposit list?
two-siRNA summed score (-2 to +2): -1; mean protection from cisplatin (shift in death) (%): -9.1; activity call: inactive

What is on record for LOC442582?
two-siRNA summed score (-2 to +2): 1; mean protection from cisplatin (shift in death) (%): 11.7; activity call: inactive

Ordered by “two-siRNA summed score (-2 to +2)” (low to high): 5 of the entries above
LOC388887 → two-siRNA summed score (-2 to +2): 0; mean protection from cisplatin (shift in death) (%): -0.9; activity call: inactive
NIT1 (nitrilase 1) → two-siRNA summed score (-2 to +2): 0; mean protection from cisplatin (shift in death) (%): 2.6; activity call: inactive
PRM2 (protamine 2) → two-siRNA summed score (-2 to +2): 0; mean protection from cisplatin (shift in death) (%): 9.7; activity call: inactive
ZNF404 (zinc finger protein 404) → two-siRNA summed score (-2 to +2): 0; mean protection from cisplatin (shift in death) (%): 12.8; activity call: inactive
LOC441460 → two-siRNA summed score (-2 to +2): 1; mean protection from cisplatin (shift in death) (%): 4; activity call: inactive

More entries:
With LOC389422, what was measured?
two-siRNA summed score (-2 to +2): 0; mean protection from cisplatin (shift in death) (%): 9.8; activity call: inactive

For DYNLL1P3 (dynein light chain LC8-type 1 pseudogene 3), what does the deposit list?
two-siRNA summed score (-2 to +2): 1; mean protection from cisplatin (shift in death) (%): 25.7; activity call: inactive

With LOC391352, what does the deposit list?
two-siRNA summed score (-2 to +2): 0; mean protection from cisplatin (shift in death) (%): 3.3; activity call: inactive

For PLAGL2 (PLAG1 like zinc finger 2), what was measured?
two-siRNA summed score (-2 to +2): -1; mean protection from cisplatin (shift in death) (%): -9.8; activity call: inactive

What did the screen give for TBC1D16 (TBC1 domain family member 16)?
two-siRNA summed score (-2 to +2): 1; mean protection from cisplatin (shift in death) (%): 13.4; activity call: inactive

How did the screen score ADAMTS8 (ADAM metallopeptidase with thrombospondin type 1 motif 8)?
two-siRNA summed score (-2 to +2): -1; mean protection from cisplatin (shift in death) (%): -17.1; activity call: inactive

For INSM1 (INSM transcriptional repressor 1), what does the deposit list?
two-siRNA summed score (-2 to +2): 0; mean protection from cisplatin (shift in death) (%): 11.3; activity call: inactive

With AIF1 (allograft inflammatory factor 1), what does the deposit list?
two-siRNA summed score (-2 to +2): -2; mean protection from cisplatin (shift in death) (%): -10.4; activity call: active

With PAQR8 (progestin and adipoQ receptor family member 8), how do the results read?
two-siRNA summed score (-2 to +2): 1; mean protection from cisplatin (shift in death) (%): 12.4; activity call: inactive

With ZNF253 (zinc finger protein 253), how do the results read?
two-siRNA summed score (-2 to +2): 0; mean protection from cisplatin (shift in death) (%): 3.8; activity call: inactive

Which result is listed for ZNF366 (zinc finger protein 366)?
two-siRNA summed score (-2 to +2): 0; mean protection from cisplatin (shift in death) (%): 2; activity call: inactive

What did the screen give for KRTAP19-5 (keratin associated protein 19-5)?
two-siRNA summed score (-2 to +2): 0; mean protection from cisplatin (shift in death) (%): 15.3; activity call: inactive

What did the screen give for ZNF282 (zinc finger protein 282)?
two-siRNA summed score (-2 to +2): 0; mean protection from cisplatin (shift in death) (%): 0; activity call: inactive

With NUDT9 (nudix hydrolase 9), what does the deposit list?
two-siRNA summed score (-2 to +2): -1; mean protection from cisplatin (shift in death) (%): -17.9; activity call: inactive

For MS4A14 (membrane spanning 4-domains A14), what was measured?
two-siRNA summed score (-2 to +2): 1; mean protection from cisplatin (shift in death) (%): 1.3; activity call: inactive

What is on record for OR10X1 (olfactory receptor family 10 subfamily X member 1)?
two-siRNA summed score (-2 to +2): 0; mean protection from cisplatin (shift in death) (%): 9.5; activity call: inactive

With PIEZO2 (piezo type mechanosensitive ion channel component 2) #1, how do the results read?
two-siRNA summed score (-2 to +2): -1; mean protection from cisplatin (shift in death) (%): -10.5; activity call: inactive

With PIEZO2 (piezo type mechanosensitive ion channel component 2) #2, what does the deposit list?
two-siRNA summed score (-2 to +2): 0; mean protection from cisplatin (shift in death) (%): 8.8; activity call: inactive

What did the screen give for NOCT (nocturnin)?
two-siRNA summed score (-2 to +2): 0; mean protection from cisplatin (shift in death) (%): 10.6; activity call: inactive

What did the screen give for OR11H6 (olfactory receptor family 11 subfamily H member 6)?
two-siRNA summed score (-2 to +2): 0; mean protection from cisplatin (shift in death) (%): -1.4; activity call: inactive
